Library screen at single concentrations

Source: ChEMBL document CHEMBL3988442, “University of Dundee, Small-Polar-MMV Screening Library” (2021).

T. brucei: 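Whole-parasite assay of Trypanosoma brucei over 72 hours; the read-out is not stated. Tested at 30 µM. Higher reads as stronger inhibition (inferred: compounds with an IC50 in retests scored well above the rest). Values scatter widely below zero; nearly all retest evidence comes from the higher of the two concentrations used. About 64,000 compounds were tested under these conditions; 1.5% (about 940) showed 50% or more at least once.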
Toxoplasma: 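Assay of Toxoplasma gondii numbers, read through their beta-galactosidase reporter with a colour substrate. Compounds at 10 µM. The record gives no direction; the compounds picked for IC50 retests had high values, so higher reads as fewer parasites. Size under these conditions: about 67,000 compounds, about 260 of them at 50% or above in at least one test.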

Each number is a percent effect as filed. The controls that fix the scale are not given in the record; negative values are as filed. This is an unselected part of the compounds tested. A dash means the value is not listed here; it may have been measured.

| compound | T. brucei | Toxoplasma |
|---|---|---|
| `Cc1nc(C2(NCc3ccc(C#N)cc3F)CCCC2)no1` | -2.227% | 7.806% |
| `CCN(Cc1ccoc1)C(=O)c1cc2c(c(S(N)(=O)=O)c1)CCC2` | 13.94% | -2.291% |
| `CC(C)CN1CCC(N2CCC(C(=O)N(C)C)CC2)CC1.O=C(O)C(F)(F)F.O=C(O)C(F)(F)F` | -18.36% | -7.318% |
| `CCc1cc(NC2CCS(=O)(=O)C2)nc(N2CCCCC2)n1` (centres undefined) | -18.28% | -6.058% |
| `COCc1cc(NCCc2ccc(F)cc2)n2nccc2n1` | 33.04% | -2.627% |
| `COCCn1c(C(=O)NC(C(N)=O)C(C)C)cc2ccccc21` (centres undefined) | -22.37% | -0.9363% |
| `O=C(O)C(F)(F)F.O=C(c1ccccn1)N1CCn2cnc(COCC3CC3)c2C1` | -8.39% | -5.987% |
| `CN(C)Cc1cc(C2CCN(C(=O)C3CC34CCC4)CC2)nn1C.Cl` (centres undefined) | -1.63% | -2.052% |
| `CC(C)(C)c1nc(CN2CCOC(Cn3cccn3)C2)no1` (centres undefined) | -6.663% | 5.998% |
| `Cc1ncc(C(=O)N2CCCCC2c2nc3cc(F)ccc3[nH]2)c(O)n1` (centres undefined) | -31.37% | -10.89% |
| `Cn1c(=O)[nH]c(=O)c2c1nc1n2CC(c2ccc(Cl)cc2)O1` (centres undefined) | -19.88% | 9.373% |
| `Cc1c(Br)cccc1C(=O)NCC1CCNCC1.Cl` | -39.7% | 3.78% |
| `CC(C)Cc1cc(C(=O)NCC2CCCN(Cc3ccco3)C2)on1` (centres undefined) | -71.79% | 9.627% |
| `Cn1ccc(C(=O)NC2CCC23CCN(Cc2ccc(F)cc2)CC3)c1.O=C(O)C(F)(F)F` (centres undefined) | 3.839% | -38.91% |
| `CN(C)C[C@@H]1CN(C(=O)c2cc(-c3ccccc3)n[nH]2)C[C@@H]1CO` | -20.14% | 28.01% |
| `Cc1cc(C(=O)N2CCCC(C)C2)ccc1NCC(=O)N1CCOCC1` (centres undefined) | - | 3.106% |
| `CC(C)c1nn(C)c(Cl)c1CNCC(=O)N1CCN(C)CC1.Cl` | -29.92% | 7.47% |
| `CNC(=O)c1cnn2c(C3CCCN3C)ccnc12` (centres undefined) | - | 4.328% |
| `COCCN(Cc1ccoc1)S(=O)(=O)c1ccc(F)c(C)c1` | -4.912% | 8.51% |
| `O=C(Nc1ncn(Cc2cccc(Br)c2)n1)C1CCC1` | -12.63% | 0.9513% |
| `CN(C)C(=O)Cc1ccc(-c2cccc3c2CCNC3)cc1` | -29.28% | - |
| `CC(C)N(Cc1cccc(Cl)c1)Cc1nc2c(cnn2C)c(=O)[nH]1` | - | 4.856% |
| `CNS(=O)(=O)c1cc(C(=O)N(C)Cc2sccc2C)c(C)o1` | -31.27% | -1.431% |
| `COCCc1noc(CN(C)c2nc(C)cc(C)n2)n1` | 5.761% | -25.29% |
| `COc1ccccc1COCC(O)CN(C)c1ccc(C)cc1C` (centres undefined) | -28.91% | 21.03% |
| `CSc1nccc(N2CCC3(CCCN(Cc4ccc(F)cc4)C3)C2)n1` (centres undefined) | 100.4% | -26.89% |
| `O=C1OCCN1CCS(=O)(=O)c1cccc(Br)c1` | -16.21% | 3.311% |
| `O=C(O)c1cc(-c2ccc3c(c2)OCO3)cc(S(=O)(=O)NC2CC2)c1` | -10.73% | 1.379% |
| `CCCn1ccnc1-c1nccn1CCn1cnnc1` | -35.49% | 11.16% |
| `Cc1ccnc(NCc2cn3nc(C)sc3n2)n1` | -59.09% | 1.875% |
| `O=C(NCCCn1cncn1)N1CCCC(N2CCCC2)C1` (centres undefined) | 6.447% | -7.339% |
| `CCCn1nc(C)c(CNS(=O)(=O)NCc2ccccc2)c1C` | 13.41% | -16.27% |
| `[H][C@@]12CS(=O)(=O)C[C@]1([H])N(Cc1ccc(OC)c(F)c1)CCN2C(=O)N(C)C` | 0.004924% | 2.174% |
| `Cl.Cl.O=C(NCc1cncc2c1CCN(C1CCOCC1)C2)c1ccco1` | -15.31% | -36.83% |
| `O=C(NCCNc1ccc(Br)cn1)c1ccc(O)cc1` | -0.364% | 5.137% |
| `COCCNc1ccc(CC2CCCN(C3CCCC3)C2)nn1` (centres undefined) | -21.91% | 4.131% |
| `CCC(C)N(Cc1cccnc1)C(=O)c1ccc(OC)cc1O` (centres undefined) | -14.23% | -6.909% |
| `CC(C)NC(=O)C1CCc2nnc(CNC(=O)c3ccc(Cl)cc3Cl)n21` (centres undefined) | - | 8.273% |
| `COc1ccc(C(CC(=O)O)NC(=O)c2cc(C)on2)cc1` (centres undefined) | -13.58% | -1.202% |
| `CNC(=O)CN1CCCC12CCN(Cc1c[nH]cn1)CC2.O=C(O)C(F)(F)F.O=C(O)C(F)(F)F` | -41.63% | -6.999% |
| `O=C(O)C(F)(F)F.[H][C@@]12COC[C@]1(COCc1csc(C)n1)CN(Cc1ccoc1)C2` | 18.07% | 5.795% |
| `CCC(C(=O)Nc1ccc2nc(C)oc2c1)N1CCCC1=O` (centres undefined) | 0.181% | 8.261% |
| `Cc1cc(CNc2ccnn2C)ccc1-n1cncn1` | 9.881% | -0.05596% |
| `COc1cc(OC)cc(-c2cccc3c2OC(CN)C3)c1` (centres undefined) | -112% | -12.11% |
| `CCCNCc1ccc(OCc2ccc3c(c2)OCCO3)cc1.Cl` | 56.18% | 26.87% |
| `Cc1sc(C(=O)N(C)S(C)(=O)=O)cc1-c1ccc(F)cc1` | -4.621% | 5.278% |
| `CCC(C)N(Cc1ccsc1)C(=O)c1ccc2[nH]nnc2c1` (centres undefined) | 2.149% | -7.985% |
| `[H][C@@]12CCCN1C[C@@H](CCSC)N(Cc1cnn(CC)c1)C2` | 20.63% | -34.68% |
| `Cc1noc(CNC(=O)[C@@H](C)NC(=O)OC(C)(C)C)n1` | 5.707% | 12.18% |
| `CSc1ccc(NCC(=O)NCC(=O)N2CCCC2)cc1F` | -36.15% | -7.427% |
| `O=C(CSCC1CC1)N1CCc2[nH]nc(COc3ccccc3)c2C1` | -22.55% | 2.368% |
| `C=C(C)CN1CCC(NC(=O)Nc2ccc(F)c(C(=O)NC)c2)CC1` | -0.7134% | -4.773% |
| `Cc1cc(C2CCCN(S(=O)(=O)c3cn(C)cn3)C2)ccn1` (centres undefined) | -10.72% | -6.127% |
| `O=C(CCc1ccccc1)N1CCCC(c2n[nH]c3nccnc23)C1` (centres undefined) | 10.43% | 5.254% |
| `CS(=O)(=O)NCCC(=O)N1CCC(Cc2ccc(CO)cc2)C1` (centres undefined) | -32.17% | 7.588% |
| `CCn1nc(C)c2nnn(CC(=O)Nc3ccccc3F)c(=O)c21` | -19.46% | 3.569% |
| `Cc1ccc(C(=O)CC(SC2CCCCC2)C(=O)O)cc1` (centres undefined) | - | 5.223% |
| `COc1cc(C(=O)N(CCC#N)Cc2ccccn2)cc(OC)c1C` | 4.832% | -0.9912% |
| `Cn1cnnc1S(=O)(=O)Cc1cc(Cl)c2c(c1)OCO2` | -21.64% | -8.125% |
| `c1ccc(N2CCOCC3(CCCN(c4nccs4)C3)C2)nc1` (centres undefined) | -19.63% | -20.73% |
| `COCC[C@]1(O)CCN(Cc2ccccn2)C[C@H]1C` | -44.77% | -16.39% |
| `COCCN1CCc2c(cnc(-c3ccccc3)c2C(=O)O)C1.O=C(O)C(F)(F)F` | 18.38% | 5.172% |
| `Cc1noc(C2CCN(C(=O)c3c(C)noc3C)CC2)n1` | -11.95% | -0.05316% |
| `O=C(c1cscn1)N1CCc2[nH]nc(Nc3ccccc3)c2C1` | -2.932% | 0.4932% |
| `CNS(=O)(=O)c1ccc(CNC(=O)N(C)CC(C)C)cc1` | -10.7% | 27.45% |
| `CCCc1cc(NC2CCN(Cc3ccccn3)CC2)n2nccc2n1` | -49.03% | 3.002% |
| `O=C(NCCn1cccn1)C1CCC(=O)N(CC2CCCCC2)C1` (centres undefined) | -41.91% | -19.14% |
| `Cc1cccc(C(=O)N2CCCC2)c1NCC(=O)NC1(C#N)CCCC1` | -70.61% | 3.128% |
| `CCC(Nc1nccc(C2CCCC2)n1)c1ccncc1` (centres undefined) | -56.44% | 10.79% |
| `O=C(CC1CC1)N1CCC2(CC1)CN(c1ncc(F)cn1)CCO2` | -27.29% | -0.1518% |
| `[H][C@@]12OCCN(S(=O)(=O)c3cn(C)cn3)[C@@]1([H])CC[C@H]2OCC` | -11.76% | 10.33% |
| `CC(C)(C)C(=O)N1CCC2(COCc3cnc(N4CCOCC4)nc32)C1` (centres undefined) | 20.14% | 8.368% |
| `[H][C@@]12COC[C@@H](C(=O)NC)[C@]1([H])CN(C(=O)c1cccc(OC)c1)C2` | -73.45% | 12.09% |
| `COc1ccccc1CCNC(=O)N1CCCC(c2nncn2C)C1` (centres undefined) | 18.87% | 3.367% |
| `CC(=O)NCC1CCN(C(=O)NCc2ccc3c(c2)OCCO3)CC1` | 47.42% | -5.83% |
| `O=C(O)C(F)(F)F.[H][C@@]12CCCO[C@]1([H])[C@@H](Oc1ccccn1)CN2C(=O)c1ccnnc1` | -55.97% | -7.985% |
| `CC(C)(C)CC(=O)N1CCC(c2nn(CCN)c3nccnc23)C1` (centres undefined) | -3.189% | -0.4643% |
| `COc1ccc(C)cc1C(C)NCc1cnnn1C` (centres undefined) | 12.44% | -0.2679% |
| `CCc1ccc(C2c3nc[nH]c3CCN2Cc2nccn2CC)nc1` (centres undefined) | -3.325% | - |

The last 5 entries again:

* CC(=O)NCC1CCN(C(=O)NCc2ccc3c(c2)OCCO3)CC1 | T. brucei: 47.42%; Toxoplasma: -5.83%
* O=C(O)C(F)(F)F.[H][C@@]12CCCO[C@]1([H])[C@@H](Oc1ccccn1)CN2C(=O)c1ccnnc1 | T. brucei: -55.97%; Toxoplasma: -7.985%
* CC(C)(C)CC(=O)N1CCC(c2nn(CCN)c3nccnc23)C1 (centres undefined) | T. brucei: -3.189%; Toxoplasma: -0.4643%
* COc1ccc(C)cc1C(C)NCc1cnnn1C (centres undefined) | T. brucei: 12.44%; Toxoplasma: -0.2679%
* CCc1ccc(C2c3nc[nH]c3CCN2Cc2nccn2CC)nc1 (centres undefined) | T. brucei: -3.325%